Results are given in words; binding and its absence hold for the method and conditions named. Binding seen in cells or lysates may run through a third protein. A yes stands for co-enrichment or nearness to the bait. Other partners may have been found.
B1: GalU (enzyme, UniProt P0AEP3 1-302)
chain: MAAINTKVKKAVIPVAGLGTRMLPATKAIPKEMLPLVDKPLIQYVVNECIAAGITEIVLVTHSSKNSIENHFDTSFELEAMLEKRVKRQLLDEVQSICPPHVTIMQVRQGLAKGLGHAVLCAHPVVGDEPVAVILPDVILDEYESDLSQDNLAEMIRRFDETGHSQIMVEPVADVTAYGVVDCKGVELAPGESVPMVGVVEKPKADVAPSNLAIVGRYVLSADIWPLLAKTPPGAGDEIQLTDAIDMLIEKETVEAYHMKGKSHDCGNKLGYMQAFVEYGIRHNTLGTEFKAWLEEEMGIKK
B2: GalF (protein, UniProt P0AAB6 1-297)
chain: MTNLKAVIPVAGLGMHMLPATKAIPKEMLPIVDKPMIQYIVDEIVAAGIKEILLVTHASKNAVENHFDTSYELESLLEQRVKRQLLAEVQSICPPGVTIMNVRQGEPLGLGHSILCARPAIGDNPFVVVLPDVVIDDASADPLRYNLAAMIARFNETGRSQVLAKRMPGDLSEYSVIQTKEPLDREGKVSRIVEFIEKPDQPQTLDSDIMAVGRYVLSADIWPELERTQPGAWGRIQLTDAIAELAKKQSVDAMLMTGDSYDCGKKMGYMQAFVKYGLRNLKEGAKFRKGIEKLLSE
B3: GalE (enzyme, UniProt P09147 1-338)
chain: MRVLVTGGSGYIGSHTCVQLLQNGHDVIILDNLCNSKRSVLPVIERLGGKHPTFVEGDIRNEALMTEILHDHAIDTVIHFAGLKAVGESVQKPLEYYDNNVNGTLRLISAMRAANVKNFIFSSSATVYGDQPKIPYVESFPTGTPQSPYGKSKLMVEQILTDLQKAQPDWSIALLRYFNPVGAHPSGDMGEDPQGIPNNLMPYIAQVAVGRRDSLAIFGNDYPTEDGTGVRDYIHVMDLADGHVVAMEKLANKPGVHIYNLGAGVGNSVLDVVNAFSKACGKPVNYHFAPRREGDLPAYWADASKADRELNWRVTRTLDEMAQDTWHWQSRHPQGYPD

Molecular target: Gnarl3 (product of phage accessory gene orf92) (Enterobacteriophage (lytic; which phage not stated))
Experiment: affinity purification with mass spectrometry

Binder	binding
B1	binds
B2	binds
B3	binds

From paper doi:10.1101/2023.04.06.535777
